Data as given in the supplement of paper PMC12067093, “Discovery and optimisation of a covalent ligand for TRIM25 and its application to targeted protein ubiquitination” (Chemical Science, 2025).
The other results are listed elsewhere or left out.

Compound: CC1Cc2ccccc2N1C(=O)C1CCCN(C1)C(=O)CCl (mixture of isomers) [TRIM25 ligand 11 (diastereomer mixture)]
Assay: probe-labelled cysteine peptide fold change vs DMSO (competition) (log2 fold change); higher = less target engagement (more negative = stronger competition)
Conditions: THP-1, incubation time: 4 h
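Further: competitive chemoproteomic profiling in live THP-1 cells with an iodoacetamide desthiobiotin (IA-DTB) probe, comparing probe-labelled peptide intensities in compound-treated cells against DMSO-treated controls.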

Target | probe-labelled cysteine peptide fold change (10 µM) | probe-labelled cysteine peptide fold change (50 µM)
MYO18A_Q92614_604_RPASEATFNVFYYLLACGDGTLR (UniProt Q92614) | 0.245 | 0.439
NAGK_Q9UJ70_268_IGLPILCVGSVWK (UniProt Q9UJ70) | 0.0341 | 0.253
MYO18A_Q92614_1155_RAVEELLECLDLEK (UniProt Q92614) | 0.0734 | 0.124
NCAPH_Q15003_255_TAASFDECSTAGVFLSTLHCQDYR (UniProt Q15003) | -0.0963 | -0.138
MYO9B_Q13459_1169_HIQSCK (UniProt Q13459) | -0.0237 | -0.105
NAA15_Q9BXJ9_214_EALEHLCTYEK (UniProt Q9BXJ9) | 0.152 | 0.117
NAPRT_Q6XQN6_463_VWPPGAQEPCTVRPAQVEPLLR (UniProt Q6XQN6) | -0.0107 | 0.0586
NCAPH_Q15003_239_CEIDPMFQK (UniProt Q15003) | -0.0904 | -0.17
NCAPH2_Q6IBW4_184_MNTCVPHPR (UniProt Q6IBW4) | -0.163 | -0.203
MYOF_Q9NZM1_1425_ASLLSAPPCR (UniProt Q9NZM1) | 0.0794 | -0.0521
NCAPH_Q15003_255+267_TAASFDECSTAGVFLSTLHCQDYR (UniProt Q15003) | 0.096 | -0.00803
NACC1_Q96RE7_178_VKTEQQESDSVQCMPVAK (UniProt Q96RE7) | -0.28 | -0.426
MYO6_Q9UM54_321_MCTAMK (UniProt Q9UM54) | -0.157 | -0.145
NAXE_Q8NCW5_127_SPPTVLVICGPGNNGGDGLVCAR (UniProt Q8NCW5) | 0.256 | 0.453
NAXD_Q8IW45_108_VGADLSHVFCASAAAPVIK (UniProt Q8IW45) | 0.092 | -0.0774
MYO6_Q9UM54_587_HFAGAVCYETTQFVEK (UniProt Q9UM54) | 0.156 | 0.137
NASP_P49321_84_KYGETANECGEAFFFYGK (UniProt P49321) | -0.0738 | -0.0259
NACC1_Q96RE7_178_TEQQESDSVQCMPVAK (UniProt Q96RE7) | -0.0858 | 0.0584
NAP1L4_Q99733_250_ADPFSFEGPEIVDCDGCTIDWK (UniProt Q99733) | 0.0304 | 0.0752
NCALD_P61601_38_DCPSGHLSMEEFK (UniProt P61601) | 0.262 | -0.0472
NCAPH_Q15003_309_APLQQCAEDR (UniProt Q15003) | 0.046 | -0.0569

Target | probe-labelled cysteine peptide fold change (10 µM) | probe-labelled cysteine peptide fold change (50 µM)
NCBP1_Q09161_320_FVIEENLHCIIK (UniProt Q09161) | 0.0474 | 0.0657
MYO1F_O00160_788_CVYVIGR (UniProt O00160) | -0.13 | -0.058
NAT1_P18440_223+233_SFCSLQTPDGVHCLVGFTLTHR (UniProt P18440) | 0.00488 | 0.0089
NAT1_P18440_233_SFCSLQTPDGVHCLVGFTLTHR (UniProt P18440) | -0.122 | -0.0243
NADSYN1_Q6IA69_627_HICTPR (UniProt Q6IA69) | -0.193 | 0.175
NCAPD2_Q15021_1229_DLAYCVSQLPLTER (UniProt Q15021) | -0.0438 | 0.0629
NCBP1_Q09161_261_HILRPYLAFDSILCEALQHNLPPFTPPPHTEDSVYPMPR (UniProt Q09161) | 0.042 | 0.045
NCBP1_Q09161_36_TSDANETEDHLESLICK (UniProt Q09161) | -0.0632 | 0.0727
NADSYN1_Q6IA69_686_CIENQVLQLER (UniProt Q6IA69) | -0.0409 | 0.0584
NARS2_Q96I59_359_HCGNIPVFVINYPLTLK (UniProt Q96I59) | 0.183 | 0.367
NADK2_Q4G0N4_193_LKPVIGVNTDPERSEGHLCLPVR (UniProt Q4G0N4) | -0.0696 | -0.0485
NAPA_P54920_212+215_AALCHFCIDMLNAK (UniProt P54920) | -0.0124 | 0.149
NCAPG_Q9BPX3_177_LQDPKDDECPVVNAYATLIENDSNPEVR (UniProt Q9BPX3) | -0.283 | -0.251
NAA25_Q14CX7_365_KFGDKPCCFTDLK (UniProt Q14CX7) | 0.0134 | -0.0607
NCAPG_Q9BPX3_509_EALENCITLQDFNR (UniProt Q9BPX3) | -0.0612 | 0.0108
NAT10_Q9H0A0_255_ESLQDTQPVGVLVDCCK (UniProt Q9H0A0) | -0.00171 | 0.179
NAA10_P41227_21_NARPEDLMNMQHCNLLCLPENYQMK (UniProt P41227) | 0.0341 | -0.081
NCAPH_Q15003_397+402_EPCQVQSCQEEMISLGDGDIR (UniProt Q15003) | -0.347 | -0.256
NCBP1_Q09161_231_PHPQEEYLDCLWAQIQK (UniProt Q09161) | 0.138 | 0.188
MYO18A_Q92614_811_GASFEELCHNYTQDR (UniProt Q92614) | -0.0106 | -0.114
NAA10_P41227_17_NARPEDLMNMQHCNLLCLPENYQMK (UniProt P41227) | -0.111 | -0.159

17 successive entries from above, quoted:
Target | probe-labelled cysteine peptide fold change (10 µM) | probe-labelled cysteine peptide fold change (50 µM)
NAGK_Q9UJ70_268_IGLPILCVGSVWK (UniProt Q9UJ70) | 0.0341 | 0.253
MYO18A_Q92614_1155_RAVEELLECLDLEK (UniProt Q92614) | 0.0734 | 0.124
NCAPH_Q15003_255_TAASFDECSTAGVFLSTLHCQDYR (UniProt Q15003) | -0.0963 | -0.138
MYO9B_Q13459_1169_HIQSCK (UniProt Q13459) | -0.0237 | -0.105
NAA15_Q9BXJ9_214_EALEHLCTYEK (UniProt Q9BXJ9) | 0.152 | 0.117
NAPRT_Q6XQN6_463_VWPPGAQEPCTVRPAQVEPLLR (UniProt Q6XQN6) | -0.0107 | 0.0586
NCAPH_Q15003_239_CEIDPMFQK (UniProt Q15003) | -0.0904 | -0.17
NCAPH2_Q6IBW4_184_MNTCVPHPR (UniProt Q6IBW4) | -0.163 | -0.203
MYOF_Q9NZM1_1425_ASLLSAPPCR (UniProt Q9NZM1) | 0.0794 | -0.0521
NCAPH_Q15003_255+267_TAASFDECSTAGVFLSTLHCQDYR (UniProt Q15003) | 0.096 | -0.00803
NACC1_Q96RE7_178_VKTEQQESDSVQCMPVAK (UniProt Q96RE7) | -0.28 | -0.426
MYO6_Q9UM54_321_MCTAMK (UniProt Q9UM54) | -0.157 | -0.145
NAXE_Q8NCW5_127_SPPTVLVICGPGNNGGDGLVCAR (UniProt Q8NCW5) | 0.256 | 0.453
NAXD_Q8IW45_108_VGADLSHVFCASAAAPVIK (UniProt Q8IW45) | 0.092 | -0.0774
MYO6_Q9UM54_587_HFAGAVCYETTQFVEK (UniProt Q9UM54) | 0.156 | 0.137
NASP_P49321_84_KYGETANECGEAFFFYGK (UniProt P49321) | -0.0738 | -0.0259
NACC1_Q96RE7_178_TEQQESDSVQCMPVAK (UniProt Q96RE7) | -0.0858 | 0.0584

Continuation.

Target | probe-labelled cysteine peptide fold change (10 µM) | probe-labelled cysteine peptide fold change (50 µM)
MYOF_Q9NZM1_969_AASPSELTCPPGWEWEDDAWSYDINR (UniProt Q9NZM1) | 0.28 | 0.0098
NADK_O95544_69_SLHGPCPVTTFGPK (UniProt O95544) | 0.0566 | -0.0588
NCAM2_O15394_232_GEEMTFSCR (UniProt O15394) | -0.0122 | 0.0245
NCBP1_Q09161_231_THVPMLQVWTADKPHPQEEYLDCLWAQIQK (UniProt Q09161) | -0.033 | -0.109
NADK2_Q4G0N4_193_SEGHLCLPVR (UniProt Q4G0N4) | 0.0735 | -0.133
MYO6_Q9UM54_514_EGLGVNEVHYVDNQDCIDLIEAK (UniProt Q9UM54) | -0.0489 | -0.0652
NCAPD2_Q15021_767_VACCPLER (UniProt Q15021) | -0.0782 | -0.475
NAPA_P54920_42_IEEACEIYAR (UniProt P54920) | -0.091 | -0.0305
NCAPH2_Q6IBW4_535_FPQLNEWCPFAELVAGQPAFEVCR (UniProt Q6IBW4) | -0.0435 | -0.0913
NAIP_Q13075_1335_HFTECIK (UniProt Q13075) | 0.077 | 0.0448
NBN_O60934_478_ERDEENQEMSSCK (UniProt O60934) | -0.0748 | -0.331
N4BP2_Q86UW6_1561_DHNYSLEHTVQFLNCVLEGDPVK (UniProt Q86UW6) | -0.117 | -0.208
NAP1L1_P55209_88_CAQIEAK (UniProt P55209) | -0.119 | 0.00995
NCAPG_Q9BPX3_751_HCLGVFFPVFAYASR (UniProt Q9BPX3) | -0.0331 | 0.114
MZF1_P28698_323_SEQDPTDEDPCR (UniProt P28698) | 0.15 | 0.0048
NCAPG_Q9BPX3_667_TLHCEGTEINSDDEQESK (UniProt Q9BPX3) | -0.0392 | -0.107
NANS_Q9NR45_19_WVGGQHPCFIIAEIGQNHQGDLDVAKR (UniProt Q9NR45) | -0.0562 | 0.00986
MYOF_Q9NZM1_1131_HSATTVFGANTPIVSCNFDR (UniProt Q9NZM1) | -0.198 | -0.0984
MYOF_Q9NZM1_1574_GLELQPQDNNGLCDPYIK (UniProt Q9NZM1) | 0.231 | 0.27
NAA50_Q9GZZ1_61_LAYFNDIAVGAVCCR (UniProt Q9GZZ1) | 0.0866 | 0.0992
MYO9B_Q13459_62_CYVLVEVK (UniProt Q13459) | -0.165 | -0.0818

Target | probe-labelled cysteine peptide fold change (10 µM) | probe-labelled cysteine peptide fold change (50 µM)
NCAPD2_Q15021_421_SVLVCK (UniProt Q15021) | -0.0768 | 0.17
NARS_O43776_359_LEDLVCDVVDR (UniProt O43776) | 0.417 | 0.125
NCAPG2_Q86XI2_964_MLECIAR (UniProt Q86XI2) | 0.251 | 0.0831
NCAM2_O15394_42_FFTCTAIGEPESIDWYNPQGEK (UniProt O15394) | 0.321 | 0.104
MYO1C_O00159_585_NPIMSQCFDR (UniProt O00159) | 0.0863 | -0.0147
NBEAL2_Q6ZNJ1_142_GTQLENVALHALLLCEGLFDPYQTWR (UniProt Q6ZNJ1) | 0.171 | -0.202
NCBP1_Q09161_332_KTCAAQLVSYPGK (UniProt Q09161) | -0.271 | -0.324
NCDN_Q9UBB6_469_LLLPGWCHLTVEDGPR (UniProt Q9UBB6) | -0.00745 | 0.0051
NCAM1_P13591_96_CVVTGEDGSESEATVNVK (UniProt P13591) | 0.0903 | 0.126
MYO1G_B0I1T2_831_QDWGCR (UniProt B0I1T2) | -0.0534 | 0.00382
NAA15_Q9BXJ9_529_HFIEITDDQFDFHTYCMR (UniProt Q9BXJ9) | -0.0244 | 0.00122
NBAS_A2RRP1_1771_LQYYFTLLENCGCADLGNCAIKPETHIR (UniProt A2RRP1) | 0.138 | -0.11
MYH9_P35579_988_KLEEEQIILEDQNCK (UniProt P35579) | -0.0172 | -0.0176
MYO6_Q9UM54_375_SAQSLEYCAELLGLDQDDLR (UniProt Q9UM54) | -0.328 | -0.182
MYOF_Q9NZM1_1553_ELPDSVPQECTVR (UniProt Q9NZM1) | 0.0826 | 0.058
NCAPD3_P42695_760_ISSQQNPNSNTLGHILCVIGHIAK (UniProt P42695) | -0.000379 | -0.165
NCBP1_Q09161_477+483_ILDIVPPTFSALCPANPTCIYK (UniProt Q09161) | 0.0521 | 0.0197
NAA25_Q14CX7_381_VFVDLLPATQCTK (UniProt Q14CX7) | -0.171 | 0.03
